Assay results: PubChem BioAssay AID901 (National Center for Advancing Translational Sciences (NCATS), 2007)
This is one part of the list. These are further read-outs of the screen, such as a control signal, another cell line or another target. No call is given for them. The list favours compounds with an active or inconclusive main result. Words in brackets tell the shape of the fitted curve; partial curves, single points and poor fits give uncertain potencies.

assay: qHTS Assay for Identifying the Cell-Membrane Permeable IMPase Inhibitors; settings: CHO-M1 cells, IP1 accumulation, HTRF TR-FRET ratio; measured here: donor channel 620 nm AC50
Source text: NCGC IMPase Assay Overview
Lithium has been widely used for the treatment of bipolar disorder. But lithium has a narrow therapeutic index and it can cause side effects such as thirst, weight gain, tremor, polyuria and memory problems. Although the mechanism for lithium action in treatment of bipolar disorder is still not fully understood, inhibition of inositol monophosphatase (IMPase) and the subsequent depletion of the inositol pool in living cells have been implicated as the primary therapeutic benefit of lithium therapy. Therefore, a selective IMPase inhibitor with reduced side effects might be a good drug candidate to replace lithium for the treatment of bipolar disorder. Several IMPase inhibitors have been discovered previously. However, they are not suitable for therapeutic use because of their poor cell membrane penetrability or oral bioavailability; the development of new cell-permeable IMPase inhibitors is needed.
IMPase catalyzes the hydrolysis of inositol-1-phosphate (IP1) to release free inositol. Binding of an agonist to a Gq coupled GPCR results in the activation of PLC, which hydrolyzes the PIP2 to form inositol-1,4,5-trisphosphate (IP3) and diacyl glycerol (DAG). While DAG activates protein kinase C (PKC), IP3 triggers the elevation of intracellular free Ca2+. The IP3 is very rapidly inactivated by hydrolysis to IP2, IP1 and then inositol by a series of enzymes including IMPase. Free inositols are used for synthesis of PI and thus start another inositol cycle.
To identify new cell-permeable IMPase inhibitors, we developed a cell-based IMPase assay in which the cytosolic IP1 is measured by a time-resolved fluorescence resonance energy transfer (TR-FRET) assay. In this assay, an IP1 specific antibody is used to detect the labeled IP1 tracer. When the cell lysate contains the elevated IP1 due to the inhibition of IMPase, the TR-FRET between the labeled antibody and IP1 tracer is disrupted resulting in a reduction in the total signal. Since the TR-FRET is used, this cell-based assay is a homogenous assay without cell wash and medium change that is suitable for assay miniaturization and HTS.
NCGC IMPase Assay Protocol Summary
A Chinese hamster ovary (CHO) cell line stably expressing the M1 receptor (CHO-M1) was obtained from ATCC and maintained in F-12 Kaighn's media (Invitrogen, Carlsbad, CA, 21127) supplemented with 10 % FBS, 100 units/ml penicillin, 100 ug/ml streptomycin and 250 ug/ml geneticin at 37C, 5% CO2 in a humidified atmosphere. Before the assay, aliquots of cells were frozen and stored at -135C. The assay was performed in 1536-well format. Data are reported for both the ratio of the two emission wavelengths, and also for the component 'donor' channel, Em2=620. […] AC50 values were determined from concentration-response data modeled with the standard Hill equation.
IMPase 1536-well assay protocol:
(1) Plate 4 ul/well (2000 cells) of cell suspension from frozen CHO-M1 Cells in white, tissue culture treated 1536-well plates that are cultured at 37C, 5 % CO2 for 16 to 30 hours.
(2) Add 23 nl/well of compound in DMSO solution. The final titration for each compound was between 0.6 nM and 46 uM.
(3) Add 1 ul of carbachol (50 uM in stimulation buffer containing10mM HEPES, 1mM CaCl2, 0.5 mM MgCl2, 4.2 mM KCl, 146 mM NaCl, 5.5 mM glucose, 50mM LiCl, pH 7.4.
(4) Incubation at 37C, 5 % CO2 for 30 min.
(5) Add 1 ul/well of d2-conjugated IP1 (d2-IP1) and 1 ul/well of Eu+ cryptate conjugated anti-IP1 antibody (Eu+-Ab) prepared in the cell lysis buffer, both from the IP-One kit (Cisbio, MA).
(6) Incubate at room temperature for 10 minutes.
(7) Detect the assay plate (Ex = 320, Em1 =665 and Em2 620) in a ViewLux plate reader.
inositol monophosphatase, IMPase, IMPase inhibitor, lithium, bipolar disorder, IP-One, HTRF, qHTS, NIH roadmap, NCGC
Note: In the gene ID and protein GI references for this assay, rat IMPase is referenced instead of hampster as hamster accession numbers were not available.

Row | SMILES | AC50
1 | CCCCCn1c(=O)c(Cc2ccccc2)c(O)c2ccccc21 | 31.6 µM [rising, single point]
2 | CC(C)Cn1c(C(C)C)nc([N+](=O)[O-])c1Sc1ccc(Cl)cn1 | 12.6 µM [falling, single point]
3 | CCOC(=O)N1CCC(NC(=O)CC(NS(=O)(=O)c2ccc(Cl)cc2)c2ccco2)CC1 (stereo not drawn) | 20 µM [rising, single point]
4 | N#CC1=C(N)C(C#N)(C#N)C(c2ccncc2)C2CN(C(=O)OCc3ccccc3)CC=C12 (stereo not drawn) | 35.5 µM [falling, single point]
5 | CCOC(=O)CSc1nc2c(sc(=S)n2Cc2ccco2)c(=O)n1-c1ccccc1 | 3.98 µM [rising, partial curve]
6 | CCN(CC)c1ccc([N+](=O)[O-])cc1C(=O)O | 0.02 µM [falling, full curve, poor fit]
7 | O=C(CN1CCC(C(=O)c2ccc(F)cc2)CC1)Nc1ccc(F)cc1 | 1 µM [falling, full curve]
8 | N#CC1=C2SCN(Cc3ccccc3)CN2C(=O)CC1c1cccs1 (stereo not drawn) | 12.6 µM [rising, partial curve]
9 | O=S(=O)(NC1c2cccc3cccc(c23)C1N1CCN(CCO)CC1)c1ccccc1 (stereo not drawn) | 0.0316 µM [rising, full curve, poor fit]
10 | O=C(Cc1ccccc1)Nc1nc2ccccc2[nH]1 | 3.16 µM [falling, partial curve]
11 | N=c1c(C(=O)NCc2ccccc2)cc2c(=O)n3ccccc3nc2n1CCCN1CCOCC1 | 0.316 µM [falling, full curve, poor fit]
12 | CC1CN(S(=O)(=O)c2cccs2)CC(C)O1 (stereo not drawn) | 0.0891 µM [rising, full curve]
13 | Brc1cc(Br)c2ncnc(N3CCCCC3)c2c1 | 12.6 µM [rising, partial curve]
14 | CN(CCO)c1c2c(nc3cc(-c4cccc(F)c4)nn13)CCCC2 | 0.00501 µM [rising, full curve]
15 | Cn1nc([N+](=O)[O-])nc1Sc1ccc(Cl)cc1 | 35.5 µM [rising, single point]
16 | COC(=O)CSc1nc(-c2cccs2)ccc1C#N | 15.8 µM [rising, single point]
17 | CCCCC(=O)Nc1ccc(C(=O)Nc2ccc(S(=O)(=O)N3CCCC3)cc2)cc1 | 12.6 µM [rising, single point]
18 | O=C(O)Cc1csc(NC(=O)c2ccco2)n1 | 5.01 µM [falling, full curve, poor fit]
19 | O=C(CSc1ncn(-c2ccccc2)n1)NCc1ccccc1 | 22.4 µM [falling, single point]
20 | CC(=O)c1c(C)[nH]c(C(=O)OCC(=O)C(C)(C)C)c1C | 0.0631 µM [rising, full curve, poor fit]
21 | O=C1C(C23CC4CC(CC(C4)C2)C3)C(=O)N(c2ccccc2)N1c1ccccc1 | 0.398 µM [falling, full curve]
22 | CCCCn1c(=N)n(CC(O)COc2ccc(C)cc2)c2ccccc21 (stereo not drawn) | 0.0251 µM [rising, full curve, poor fit]

Among those listed so far, these contain four or more nitrogen atoms.
Row | SMILES | AC50
2 | CC(C)Cn1c(C(C)C)nc([N+](=O)[O-])c1Sc1ccc(Cl)cn1 | 12.6 µM [falling, single point]
4 | N#CC1=C(N)C(C#N)(C#N)C(c2ccncc2)C2CN(C(=O)OCc3ccccc3)CC=C12 (stereo not drawn) | 35.5 µM [falling, single point]
11 | N=c1c(C(=O)NCc2ccccc2)cc2c(=O)n3ccccc3nc2n1CCCN1CCOCC1 | 0.316 µM [falling, full curve, poor fit]
14 | CN(CCO)c1c2c(nc3cc(-c4cccc(F)c4)nn13)CCCC2 | 0.00501 µM [rising, full curve]
15 | Cn1nc([N+](=O)[O-])nc1Sc1ccc(Cl)cc1 | 35.5 µM [rising, single point]
19 | O=C(CSc1ncn(-c2ccccc2)n1)NCc1ccccc1 | 22.4 µM [falling, single point]

(next part)

Row | SMILES | AC50
23 | COc1ccc(NC(=O)CNS(=O)(=O)c2ccccc2)cc1Cl | 22.4 µM [falling, partial curve, poor fit]
24 | O=C1c2ccccc2C(=O)N1CCCc1nc(-c2ccncc2)no1 | 0.0158 µM [rising, full curve, poor fit]
25 | O=C(Cn1c(=O)n(CC2CCCO2)c(=O)c2ccccc21)N1CCN(c2ccccc2)CC1 (stereo not drawn) | 35.5 µM [falling, partial curve, poor fit]
26 | CCCCOc1ccc(C(=O)CCN2CCCCC2)cc1 | 0.00126 µM [falling, full curve, poor fit]
27 | O=C(CSc1nnc(-c2cccs2)n1-c1ccccc1)Nc1ccccc1 | 31.6 µM [rising, single point]
28 | CN(C)/C=N/c1c(C#N)cnn1-c1nc2ccccc2s1 | 0.2 µM [rising, partial curve]
29 | CCc1ccccc1NC(=O)N[C@@H](C)C(=O)O | 4.47 µM [rising, single point]
30 | O=C(c1cncc(Br)c1)N1CCCc2ccccc21 | 28.2 µM [falling, single point]
31 | CC(=O)Nc1cc2c(cc1C(=O)C(C)C)OCCO2 | 0.251 µM [falling, full curve]
32 | CCOc1ccc(NCC2CCOC(C)(C)C2)cc1 (stereo not drawn) | 12.6 µM [falling, single point]
33 | C=CCn1c(COc2ccccc2-c2ccccc2)nnc1SCC(=O)NC(=O)NCc1ccco1 | 12.6 µM [falling, partial curve, poor fit]
34 | Cc1ccc(NC(=O)C2CCCN(S(=O)(=O)c3c(C)noc3C)C2)c(C)c1 (stereo not drawn) | 6.31 µM [rising, partial curve, poor fit]
35 | c1nc(NC2CCCCCC2)c2[nH]cnc2n1 | 0.0355 µM [rising, full curve]
36 | COc1ccc(-c2nnc(NC(=O)C(C)C)s2)c(OC)c1 | 31.6 µM [rising, single point]
37 | CCOC(=O)c1nc(N2CCN(C(=O)OCC)CC2)c2c3c(sc2n1)CCCC3 | 1 µM [falling, partial curve]
38 | CN(Cc1ccccc1)S(=O)(=O)c1ccc2c(c1)OCCO2 | 3.98 µM [rising, single point]
39 | CCOC(=O)N1CCC(n2c(SCC(=O)OCc3ccccc3)nc3ccsc3c2=O)CC1 | 0.01 µM [rising, full curve, poor fit]
40 | Cc1ccccc1CN1C(=O)C2(OCCCO2)c2ccccc21 | 1.58 µM [rising, full curve, poor fit]
41 | N#Cc1c2c(c(NCCN3CCOCC3)n3c1nc1ccccc13)CCCC2 | 1.26 µM [falling, partial curve, poor fit]
42 | CCN(Cc1ccccc1)C(=O)c1ccccc1C | 5.62 µM [rising, single point]
43 | O=C(O)COc1ccc(-c2nnn(CC(=O)O)n2)cc1 | 3.16 µM [falling, single point]
